Experimental findings from paper PMC12822431, “A Pan‐TE Map Reveals the Important Role of Transposable Elements in Gene Expression and Phenotypic Diversity in 2,311 Rapeseed Accessions” are described below.

This data set has as its target T1, BnaA01G0374400ZS (MYB TF, ortholog of AT3G11280) (Brassica napus (ZS11)) (UniProt A0A078HEX6).
T1 sequence (looked up, limits assumed): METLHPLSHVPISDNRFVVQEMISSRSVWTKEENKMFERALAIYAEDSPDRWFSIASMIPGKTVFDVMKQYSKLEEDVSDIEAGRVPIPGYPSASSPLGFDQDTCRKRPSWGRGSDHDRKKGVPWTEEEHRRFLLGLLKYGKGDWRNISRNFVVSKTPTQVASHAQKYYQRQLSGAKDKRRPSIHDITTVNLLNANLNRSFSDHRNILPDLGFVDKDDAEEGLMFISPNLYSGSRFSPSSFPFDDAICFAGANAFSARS
Put plainly: EMSA. Particulars: Beyotime GS009 EMSA kit, room temperature, 20 min, 5% native polyacrylamide gel, chemiluminescent detection; salt and pH not stated; recombinant protein; protein details: His; label: biotin.

For at least one entry, the source does not settle the construct or the ends of the probe. The comparison behind a weaker result is the experiment's own reference, which may not be listed here. Protein sequences can lack the tags named with them.

Take “TTTTTTTCTTTATATCGAATCCATT (double strand) [M1 (S3 with AC nucleotides mutated)]”: the binding result is “binds more weakly”. Regarding “ACGTGTGCTTTACATCGAATCCATT (double strand) [S3 probe (R6)]”, the binding result is “binds more weakly”. As for “ACGAGGGTGTTACAACGAAACAATTT (double strand) [S2 probe (R5)]”, the binding result was “binds more weakly”.
